Measurements taken from US20240060123.

The chains behind the UniProt entries cited, without tags or fusion partners. Where a name states a change or a piece, a line headed by the entry shows the natural chain unless it says otherwise.
UniProt O34996: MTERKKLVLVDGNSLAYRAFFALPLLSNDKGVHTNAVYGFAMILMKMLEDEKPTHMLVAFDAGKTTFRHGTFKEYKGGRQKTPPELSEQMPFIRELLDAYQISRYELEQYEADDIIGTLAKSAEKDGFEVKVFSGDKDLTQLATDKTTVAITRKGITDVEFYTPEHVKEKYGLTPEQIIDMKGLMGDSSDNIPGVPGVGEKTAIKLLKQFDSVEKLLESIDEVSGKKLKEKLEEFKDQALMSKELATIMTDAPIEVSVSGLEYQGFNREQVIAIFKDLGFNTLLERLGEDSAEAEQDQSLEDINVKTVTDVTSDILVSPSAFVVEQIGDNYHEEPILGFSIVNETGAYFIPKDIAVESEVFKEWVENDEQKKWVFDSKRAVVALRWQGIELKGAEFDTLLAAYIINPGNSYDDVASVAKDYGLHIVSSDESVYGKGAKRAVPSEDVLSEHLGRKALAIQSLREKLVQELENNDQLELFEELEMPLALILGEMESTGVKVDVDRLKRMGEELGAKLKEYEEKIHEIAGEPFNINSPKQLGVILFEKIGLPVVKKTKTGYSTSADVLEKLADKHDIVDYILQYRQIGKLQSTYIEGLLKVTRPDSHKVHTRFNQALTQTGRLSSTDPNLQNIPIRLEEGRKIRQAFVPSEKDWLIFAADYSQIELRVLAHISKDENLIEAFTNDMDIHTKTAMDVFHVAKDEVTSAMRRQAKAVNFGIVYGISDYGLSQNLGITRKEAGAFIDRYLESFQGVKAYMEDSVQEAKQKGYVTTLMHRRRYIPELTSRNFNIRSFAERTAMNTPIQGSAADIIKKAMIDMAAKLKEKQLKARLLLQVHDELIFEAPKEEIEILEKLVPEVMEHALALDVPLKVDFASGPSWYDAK
UniProt P19821: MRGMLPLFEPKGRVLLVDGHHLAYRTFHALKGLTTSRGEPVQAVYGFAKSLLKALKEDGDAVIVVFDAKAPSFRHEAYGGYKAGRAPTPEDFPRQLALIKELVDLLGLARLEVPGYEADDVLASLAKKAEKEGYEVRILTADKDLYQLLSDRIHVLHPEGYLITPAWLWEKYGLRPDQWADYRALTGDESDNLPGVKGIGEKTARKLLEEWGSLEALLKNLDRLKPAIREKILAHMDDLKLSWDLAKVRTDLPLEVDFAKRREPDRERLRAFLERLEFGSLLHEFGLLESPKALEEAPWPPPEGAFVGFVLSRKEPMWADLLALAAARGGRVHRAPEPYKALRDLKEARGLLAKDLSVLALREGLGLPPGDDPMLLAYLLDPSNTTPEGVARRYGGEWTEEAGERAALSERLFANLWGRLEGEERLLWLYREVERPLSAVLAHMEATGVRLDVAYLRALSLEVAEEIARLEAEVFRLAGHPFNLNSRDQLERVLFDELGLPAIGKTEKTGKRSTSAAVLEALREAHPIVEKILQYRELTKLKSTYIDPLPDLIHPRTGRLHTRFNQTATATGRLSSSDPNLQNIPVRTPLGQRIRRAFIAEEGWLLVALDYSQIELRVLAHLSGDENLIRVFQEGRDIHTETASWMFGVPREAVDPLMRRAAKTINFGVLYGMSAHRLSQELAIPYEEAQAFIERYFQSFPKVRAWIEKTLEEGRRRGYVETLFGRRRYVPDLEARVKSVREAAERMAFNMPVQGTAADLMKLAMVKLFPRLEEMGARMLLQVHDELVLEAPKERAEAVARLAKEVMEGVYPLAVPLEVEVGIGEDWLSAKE

Assays:
[1] = system: T1, G4P-Bst DNA polymerase (G4P fused to N-terminus of Bst large fragment) (Geobacillus stearothermophilus); assay: inhibition of the protein; conditions: purified recombinant protein, folded or branched DNA, dose not given here
T1 sequence: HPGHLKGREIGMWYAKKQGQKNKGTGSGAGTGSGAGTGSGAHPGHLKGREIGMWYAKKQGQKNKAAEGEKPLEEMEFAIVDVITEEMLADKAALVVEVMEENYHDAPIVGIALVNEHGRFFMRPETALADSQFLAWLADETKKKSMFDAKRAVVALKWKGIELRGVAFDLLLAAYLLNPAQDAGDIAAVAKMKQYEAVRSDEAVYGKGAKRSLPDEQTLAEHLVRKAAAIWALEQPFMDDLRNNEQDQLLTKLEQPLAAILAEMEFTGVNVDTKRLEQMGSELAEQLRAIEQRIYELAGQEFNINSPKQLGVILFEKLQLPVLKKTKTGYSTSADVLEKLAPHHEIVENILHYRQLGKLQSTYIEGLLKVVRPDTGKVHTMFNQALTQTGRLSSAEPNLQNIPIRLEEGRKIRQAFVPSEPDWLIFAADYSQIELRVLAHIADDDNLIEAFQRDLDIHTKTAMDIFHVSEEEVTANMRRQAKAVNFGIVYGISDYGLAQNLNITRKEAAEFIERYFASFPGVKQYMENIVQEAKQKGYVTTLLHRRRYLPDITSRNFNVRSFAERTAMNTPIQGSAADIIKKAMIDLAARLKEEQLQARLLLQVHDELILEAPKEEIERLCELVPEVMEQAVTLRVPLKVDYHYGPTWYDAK

G4P-Bsu DNA polymerase [2] = target: T2, G4P-Bsu DNA polymerase (UniProt O34996); assay: activity assay; conditions: primer extension, active at 20-50 C; 10 mM MgCl2; purified recombinant protein; label: 5'-FAM on primer
T2 sequence: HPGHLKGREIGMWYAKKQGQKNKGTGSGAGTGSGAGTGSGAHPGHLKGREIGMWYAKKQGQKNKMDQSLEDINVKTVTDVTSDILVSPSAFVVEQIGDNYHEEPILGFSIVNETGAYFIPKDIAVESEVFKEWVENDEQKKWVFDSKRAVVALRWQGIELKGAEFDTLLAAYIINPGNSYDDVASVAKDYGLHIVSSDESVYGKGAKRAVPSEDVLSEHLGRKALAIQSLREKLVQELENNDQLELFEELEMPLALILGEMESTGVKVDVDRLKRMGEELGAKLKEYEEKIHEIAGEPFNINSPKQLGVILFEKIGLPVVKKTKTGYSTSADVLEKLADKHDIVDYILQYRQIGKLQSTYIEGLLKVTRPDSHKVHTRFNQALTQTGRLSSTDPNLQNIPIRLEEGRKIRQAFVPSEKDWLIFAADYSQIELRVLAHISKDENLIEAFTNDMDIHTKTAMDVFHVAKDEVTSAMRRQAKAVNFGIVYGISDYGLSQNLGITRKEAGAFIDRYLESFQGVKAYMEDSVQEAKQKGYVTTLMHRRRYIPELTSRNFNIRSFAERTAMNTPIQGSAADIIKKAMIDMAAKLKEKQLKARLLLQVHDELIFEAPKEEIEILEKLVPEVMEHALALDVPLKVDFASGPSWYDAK

[3] = system: T1, G4P-Bst DNA polymerase (G4P fused to N-terminus of Bst large fragment) (Geobacillus stearothermophilus); assay: activity assay; conditions: primer extension, active at 15-65 C; 8 mM MgSO4, 50 mM KCl, pH 8.8; purified recombinant protein; label: 5'-FAM on primer
G4P-Taq DNA polymerase [4] = target: G4P-Taq DNA polymerase (UniProt P19821); assay: activity assay; conditions: primer extension, active at 25-65 C; 1.5 mM MgCl2; purified recombinant protein; label: 5'-FAM on primer
G4P-Bsu DNA polymerase [5] = target: T2, G4P-Bsu DNA polymerase; assay: inhibition of the protein; conditions: purified recombinant protein; folded or branched DNA; variant of PC-1; dose not given here
G4P-Taq DNA polymerase [6] = target: G4P-Taq DNA polymerase (UniProt P19821); assay: inhibition of the protein; conditions: purified recombinant protein; folded or branched DNA; variant of PC-1; dose not given here

Sequence: AGACCAGTTTTCTGGTCTTTTTTTTGGGTGGGTGGGTGGGT [PC-H7]
- functional effect of the aptamer ([1]; PC-linker between SEQ 16 and SEQ 17, 7 bp stem inhibits only at 15-40 C, active at 30-65 C after UV, variant of PC-1): less active

Sequence: CCACGACGCAGACCAGTTTTCTGGTCTGCGTCGTGGTTTTTTTGGGTGGGTGGGTGGGT [PC-H16]
- functional effect of the aptamer ([1]; PC-linker between SEQ 22 and SEQ 23, inhibits at 15-65 C, active at 30-65 C after UV, variant of PC-1): active

Sequence: CCAGCCTGCGGCGAGTG / TCTATTACATTCTAAGAGTTAGAGTTAGGGTCTACTCTTCTTCTCTTCTTCACTCGCCGCAGGCTGG [CSTB-A primer / Template-GM]
- activity on this sequence (G4P-Bsu DNA polymerase [2]): active
- activity on this sequence [3]: active
- activity on this sequence (G4P-Taq DNA polymerase [4]): active

Sequence: CGACGCAGACCAGTTTTCTGGTCTGCGTCGTTTTTTTGGGTGGGTGGGTGGGT [PC-H13]
- functional effect of the aptamer ([1]; PC-linker between SEQ 20 and SEQ 21, inhibits at 15-65 C, active at 30-65 C after UV, variant of PC-1): active

Sequence: CGCAGACCAGTTTTCTGGTCTGCGTTTTTT / TGGGTGGGTGGGTGGGT [PC-1 after UV photocleavage]
- functional effect of the aptamer (G4P-Bsu DNA polymerase [5]): less active
- functional effect of the aptamer (G4P-Taq DNA polymerase [6]): less active

Sequence: CGCAGACCAGTTTTCTGGTCTGCGTTTTTTTGGGTGGGTGGGTGGGT [PC-1]
- functional effect of the aptamer ([1]; photocleavable PC-linker between SEQ 6 and SEQ 7, primer extension inhibited at 15-65 C without UV): active

Sequence: CGCAGACCAGTTTTCTGGTCTGCGTTTTTTTGGGTGGGTGGGTGGGT [PC-2]
- functional effect of the aptamer ([1]; PC-linker between SEQ 10 and SEQ 11 (hairpin loop), variant of PC-1): active

Sequence: CGCAGACCAGTTTTCTGGTCTGCGTTTTTTTGGGTGGGTGGGTGGGT [PC-3]
- functional effect of the aptamer ([1]; PC-linker between SEQ 12 and SEQ 13 (G4 loop), variant of PC-1): active

Sequence: CGCAGACCAGTTTTCTGGTCTGCGTTTTTTTGGGTGGGTGGGTGGGT [PC-4]
- functional effect of the aptamer ([1]; PC-linker between SEQ 14 and TGGGTGGGT (G4 loop), variant of PC-1): active

Sequence: CGCAGACCAGTTTTCTGGTCTGCGTTTTTTTGGGTGGGTGGGTGGGT [PC-5]
- functional effect of the aptamer ([1]; PC-linker between SEQ 15 and TGGGT (G4 loop), variant of PC-1): active

Sequence: CGCAGACCAGTTTTCTGGTCTGCGTTTTTTTGGGTGGGTGGGTGGGT [PC-H10]
- functional effect of the aptamer ([1]; PC-linker between SEQ 18 and SEQ 19, inhibits at 15-65 C, active at 30-65 C after UV, variant of PC-1): active

For some assays here: Weaker means in comparison with the reference protein, sequence or condition of that experiment. For some assays here: Protein sequences can lack the tags named with them.
